Literature values in patent US20050192282A1, “Chemokine inhibiting piperazine derivatives and their use to treat multiple myeloma” (Schering Aktiengesellschaft, priority 2004, published 2005).
Some of these results come from one statement about several compounds together.

T1: Human CCR1 (Homo sapiens, UniProt P32246)
T1 sequence (P32246 1-355): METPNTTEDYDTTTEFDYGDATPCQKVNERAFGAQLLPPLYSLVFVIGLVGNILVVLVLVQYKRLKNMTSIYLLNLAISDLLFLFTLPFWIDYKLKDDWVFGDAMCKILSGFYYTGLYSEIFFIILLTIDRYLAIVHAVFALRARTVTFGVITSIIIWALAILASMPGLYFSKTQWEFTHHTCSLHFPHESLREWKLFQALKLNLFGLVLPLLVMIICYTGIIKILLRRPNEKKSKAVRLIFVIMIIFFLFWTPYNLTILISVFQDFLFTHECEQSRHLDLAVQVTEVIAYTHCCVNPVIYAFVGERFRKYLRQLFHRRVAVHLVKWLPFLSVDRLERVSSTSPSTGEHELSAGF

B1: MIP-1β: human chemokine binding CCR1 with low affinity (protein, UniProt P13236 24-92, looked up)
C-C motif chemokine 4: APMGSDPPTACCFSYTARKLPRNFVVDYYETSSLCSQPAVVFQTKRSKQVCADPSESWVQEYVYDLELN

Experiments:
Human CCR1 [1] = molecular target: T1, Human CCR1; conditions: read-out: EC50 as agonist for human CCR1; cited from earlier work
Human CCR1 [2] = molecular target: T1, Human CCR1; conditions: low affinity; cited from earlier work

Molecule | EC50 (Human CCR1 [1]) [nM] | affinity of binding to human CCR1 (Human CCR1 [2]) [nM]
MIP-1α: human CC chemokine, ligand for CCR1 and CCR5; recombinant form used as stimulus | < 10 | 
RANTES: human CC chemokine that signals through CCR1 | < 10 | 
B1 |  | > 100
